Some of the results follow.
What was measured:
Assay in all cases: log2 fold change, soluble protein after heating vs DMSO (PISA); higher = thermal stabilisation; K562 lysate, 10 uM; active = over 0.2 and 3.5 SD of the protein, either way, in both replicates (recomputed)
ibrutinib = compound: C=CC(=O)N1CCC[C@@H](n2nc(-c3ccc(Oc4ccccc4)cc3)c3c(N)ncnc32)C1 [ibrutinib]
How it was run: (§1)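 Values give the log-two fold change in thermal stability against solvent controls, from duplicates. Crude K562 extract at 1 mg/mL protein, made by dounce homogenisation in PBS pH 7.4 with 1 mM MgCl2, was treated with 10 μM compound for 30 min. After 3 min heating across 48°C-58°C, aliquots were pooled, adjusted to 0.5% NP-40 at 4°C and centrifuged at 21,000xg for 90 min. The supernatant was measured by TMTpro 16plex LC-MS/MS with channel sums equalised.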

Amino acid sequences for entries named in this document (tags omitted). A change or cut given only in a name is not applied to a line headed by its entry.
UniProt P02008: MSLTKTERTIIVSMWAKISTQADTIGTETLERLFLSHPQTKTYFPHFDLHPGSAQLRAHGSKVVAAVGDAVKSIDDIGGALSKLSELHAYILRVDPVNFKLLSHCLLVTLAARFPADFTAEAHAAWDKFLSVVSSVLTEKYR
UniProt P16402, whole entry, looked up: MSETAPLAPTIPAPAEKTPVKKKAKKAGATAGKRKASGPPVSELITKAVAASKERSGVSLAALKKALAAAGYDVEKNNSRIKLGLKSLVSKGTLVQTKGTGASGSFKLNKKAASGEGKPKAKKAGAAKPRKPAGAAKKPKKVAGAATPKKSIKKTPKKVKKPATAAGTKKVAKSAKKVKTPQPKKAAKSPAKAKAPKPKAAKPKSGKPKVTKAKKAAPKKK
UniProt Q68CZ6: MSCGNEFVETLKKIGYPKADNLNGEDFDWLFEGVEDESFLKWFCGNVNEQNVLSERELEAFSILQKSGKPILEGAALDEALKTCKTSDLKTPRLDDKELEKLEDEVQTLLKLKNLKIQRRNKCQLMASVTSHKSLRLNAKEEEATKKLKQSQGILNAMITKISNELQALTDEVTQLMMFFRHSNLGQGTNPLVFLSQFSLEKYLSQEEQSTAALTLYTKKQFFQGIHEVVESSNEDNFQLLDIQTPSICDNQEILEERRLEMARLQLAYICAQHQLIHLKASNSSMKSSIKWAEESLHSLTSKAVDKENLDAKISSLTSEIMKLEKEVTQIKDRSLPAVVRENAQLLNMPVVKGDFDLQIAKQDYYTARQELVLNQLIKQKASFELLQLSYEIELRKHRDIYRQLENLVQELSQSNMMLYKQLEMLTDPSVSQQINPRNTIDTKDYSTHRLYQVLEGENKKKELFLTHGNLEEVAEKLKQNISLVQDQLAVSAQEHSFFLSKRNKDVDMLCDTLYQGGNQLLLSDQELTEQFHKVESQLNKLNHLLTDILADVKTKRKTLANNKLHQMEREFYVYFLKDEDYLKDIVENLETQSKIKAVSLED
UniProt Q92522: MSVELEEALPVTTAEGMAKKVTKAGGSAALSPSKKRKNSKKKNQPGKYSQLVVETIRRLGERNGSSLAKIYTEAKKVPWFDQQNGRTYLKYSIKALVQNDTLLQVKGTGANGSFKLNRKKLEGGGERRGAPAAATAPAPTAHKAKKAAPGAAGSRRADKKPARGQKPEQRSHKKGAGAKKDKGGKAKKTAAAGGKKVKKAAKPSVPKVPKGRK
UniProt Q8WUA4: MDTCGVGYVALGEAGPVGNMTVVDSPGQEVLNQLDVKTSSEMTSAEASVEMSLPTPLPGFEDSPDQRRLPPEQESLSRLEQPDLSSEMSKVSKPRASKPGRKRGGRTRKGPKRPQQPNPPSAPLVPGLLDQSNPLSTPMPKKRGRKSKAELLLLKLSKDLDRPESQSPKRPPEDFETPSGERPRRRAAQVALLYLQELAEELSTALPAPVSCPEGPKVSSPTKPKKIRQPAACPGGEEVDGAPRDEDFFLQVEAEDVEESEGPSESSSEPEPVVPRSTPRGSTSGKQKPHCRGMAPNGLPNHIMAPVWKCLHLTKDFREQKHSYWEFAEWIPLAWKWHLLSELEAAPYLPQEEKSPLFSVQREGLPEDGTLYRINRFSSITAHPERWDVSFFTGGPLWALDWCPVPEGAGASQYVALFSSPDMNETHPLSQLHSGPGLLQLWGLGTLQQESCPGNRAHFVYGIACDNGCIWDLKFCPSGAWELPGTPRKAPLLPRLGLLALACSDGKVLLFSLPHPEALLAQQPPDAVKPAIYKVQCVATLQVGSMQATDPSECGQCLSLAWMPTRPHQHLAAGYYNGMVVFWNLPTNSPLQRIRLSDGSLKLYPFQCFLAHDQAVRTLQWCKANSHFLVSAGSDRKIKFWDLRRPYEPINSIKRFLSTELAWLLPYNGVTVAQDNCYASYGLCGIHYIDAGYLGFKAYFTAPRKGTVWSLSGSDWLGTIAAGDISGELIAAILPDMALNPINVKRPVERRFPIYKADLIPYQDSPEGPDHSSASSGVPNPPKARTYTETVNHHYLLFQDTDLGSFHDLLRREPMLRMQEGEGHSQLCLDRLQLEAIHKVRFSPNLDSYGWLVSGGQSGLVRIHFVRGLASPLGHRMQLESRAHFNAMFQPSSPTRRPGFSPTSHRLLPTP
UniProt P46976: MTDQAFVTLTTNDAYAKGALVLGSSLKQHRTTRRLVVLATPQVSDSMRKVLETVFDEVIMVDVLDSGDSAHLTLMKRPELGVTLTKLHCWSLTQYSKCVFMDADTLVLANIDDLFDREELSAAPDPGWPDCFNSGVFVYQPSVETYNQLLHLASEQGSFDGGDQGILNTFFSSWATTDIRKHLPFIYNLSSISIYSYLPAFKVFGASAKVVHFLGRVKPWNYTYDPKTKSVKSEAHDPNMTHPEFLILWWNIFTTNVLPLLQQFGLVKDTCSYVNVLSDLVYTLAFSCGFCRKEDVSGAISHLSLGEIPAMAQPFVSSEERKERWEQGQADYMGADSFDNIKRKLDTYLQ
UniProt Q14687: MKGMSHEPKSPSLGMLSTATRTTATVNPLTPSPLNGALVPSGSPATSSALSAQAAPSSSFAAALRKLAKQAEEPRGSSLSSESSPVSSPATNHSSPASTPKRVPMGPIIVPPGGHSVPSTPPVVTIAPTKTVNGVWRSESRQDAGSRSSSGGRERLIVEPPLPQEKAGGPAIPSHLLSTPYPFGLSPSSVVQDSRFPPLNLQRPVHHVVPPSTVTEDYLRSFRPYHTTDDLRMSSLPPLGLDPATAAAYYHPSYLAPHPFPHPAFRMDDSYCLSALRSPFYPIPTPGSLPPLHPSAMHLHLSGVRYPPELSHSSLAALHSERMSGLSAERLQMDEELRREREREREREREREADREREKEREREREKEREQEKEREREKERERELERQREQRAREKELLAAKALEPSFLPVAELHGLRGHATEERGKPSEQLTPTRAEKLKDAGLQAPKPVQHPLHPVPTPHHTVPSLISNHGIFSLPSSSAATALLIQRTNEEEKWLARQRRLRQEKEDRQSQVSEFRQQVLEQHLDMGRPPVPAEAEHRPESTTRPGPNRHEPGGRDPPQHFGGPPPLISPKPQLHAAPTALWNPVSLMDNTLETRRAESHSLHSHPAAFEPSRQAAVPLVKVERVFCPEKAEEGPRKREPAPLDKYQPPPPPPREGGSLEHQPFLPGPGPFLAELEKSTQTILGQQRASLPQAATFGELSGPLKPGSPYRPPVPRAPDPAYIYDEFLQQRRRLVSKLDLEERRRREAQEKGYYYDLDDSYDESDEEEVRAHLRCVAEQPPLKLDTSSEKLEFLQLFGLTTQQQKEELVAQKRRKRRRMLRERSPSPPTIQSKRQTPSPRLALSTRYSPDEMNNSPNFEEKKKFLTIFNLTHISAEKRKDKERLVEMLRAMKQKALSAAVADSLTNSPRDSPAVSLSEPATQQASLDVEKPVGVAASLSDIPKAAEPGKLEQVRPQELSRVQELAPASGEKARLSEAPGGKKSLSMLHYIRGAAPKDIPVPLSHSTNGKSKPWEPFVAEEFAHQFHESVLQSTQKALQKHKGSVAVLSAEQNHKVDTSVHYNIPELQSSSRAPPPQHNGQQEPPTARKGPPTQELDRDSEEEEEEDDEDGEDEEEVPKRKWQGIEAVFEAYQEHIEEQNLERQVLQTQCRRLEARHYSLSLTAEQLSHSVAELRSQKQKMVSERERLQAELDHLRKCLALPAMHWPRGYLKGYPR
UniProt P30711: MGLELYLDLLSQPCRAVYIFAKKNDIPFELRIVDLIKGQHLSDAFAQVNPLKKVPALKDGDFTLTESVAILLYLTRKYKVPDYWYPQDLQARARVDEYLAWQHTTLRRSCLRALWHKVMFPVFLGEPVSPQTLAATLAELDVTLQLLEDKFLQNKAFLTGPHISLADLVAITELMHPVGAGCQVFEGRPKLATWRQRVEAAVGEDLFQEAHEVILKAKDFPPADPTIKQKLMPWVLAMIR
UniProt P48637: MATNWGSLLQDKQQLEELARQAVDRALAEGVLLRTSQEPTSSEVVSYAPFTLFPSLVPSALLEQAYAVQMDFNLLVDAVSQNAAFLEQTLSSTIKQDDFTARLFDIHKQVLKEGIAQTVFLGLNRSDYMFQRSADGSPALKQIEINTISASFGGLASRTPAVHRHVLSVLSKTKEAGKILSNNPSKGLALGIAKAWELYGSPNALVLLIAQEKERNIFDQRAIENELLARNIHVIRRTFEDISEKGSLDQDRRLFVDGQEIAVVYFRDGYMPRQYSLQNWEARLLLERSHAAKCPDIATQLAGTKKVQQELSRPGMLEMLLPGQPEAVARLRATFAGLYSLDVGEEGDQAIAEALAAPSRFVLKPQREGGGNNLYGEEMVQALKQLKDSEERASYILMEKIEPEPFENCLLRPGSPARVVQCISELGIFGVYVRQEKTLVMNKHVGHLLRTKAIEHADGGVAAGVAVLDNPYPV
UniProt P15170, whole entry, looked up: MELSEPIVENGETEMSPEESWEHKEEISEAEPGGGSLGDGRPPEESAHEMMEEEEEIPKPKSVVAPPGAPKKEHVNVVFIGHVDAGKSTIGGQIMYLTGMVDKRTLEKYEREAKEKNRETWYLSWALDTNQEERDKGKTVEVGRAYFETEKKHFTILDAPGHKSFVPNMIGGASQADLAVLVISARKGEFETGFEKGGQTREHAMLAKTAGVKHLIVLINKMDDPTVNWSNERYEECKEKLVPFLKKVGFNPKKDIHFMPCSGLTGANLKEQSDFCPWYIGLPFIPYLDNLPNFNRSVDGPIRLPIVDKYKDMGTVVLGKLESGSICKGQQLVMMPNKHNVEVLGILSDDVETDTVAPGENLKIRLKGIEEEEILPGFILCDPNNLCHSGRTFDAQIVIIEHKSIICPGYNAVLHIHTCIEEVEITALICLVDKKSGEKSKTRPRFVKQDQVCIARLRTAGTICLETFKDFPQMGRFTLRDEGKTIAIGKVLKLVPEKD
UniProt P56524: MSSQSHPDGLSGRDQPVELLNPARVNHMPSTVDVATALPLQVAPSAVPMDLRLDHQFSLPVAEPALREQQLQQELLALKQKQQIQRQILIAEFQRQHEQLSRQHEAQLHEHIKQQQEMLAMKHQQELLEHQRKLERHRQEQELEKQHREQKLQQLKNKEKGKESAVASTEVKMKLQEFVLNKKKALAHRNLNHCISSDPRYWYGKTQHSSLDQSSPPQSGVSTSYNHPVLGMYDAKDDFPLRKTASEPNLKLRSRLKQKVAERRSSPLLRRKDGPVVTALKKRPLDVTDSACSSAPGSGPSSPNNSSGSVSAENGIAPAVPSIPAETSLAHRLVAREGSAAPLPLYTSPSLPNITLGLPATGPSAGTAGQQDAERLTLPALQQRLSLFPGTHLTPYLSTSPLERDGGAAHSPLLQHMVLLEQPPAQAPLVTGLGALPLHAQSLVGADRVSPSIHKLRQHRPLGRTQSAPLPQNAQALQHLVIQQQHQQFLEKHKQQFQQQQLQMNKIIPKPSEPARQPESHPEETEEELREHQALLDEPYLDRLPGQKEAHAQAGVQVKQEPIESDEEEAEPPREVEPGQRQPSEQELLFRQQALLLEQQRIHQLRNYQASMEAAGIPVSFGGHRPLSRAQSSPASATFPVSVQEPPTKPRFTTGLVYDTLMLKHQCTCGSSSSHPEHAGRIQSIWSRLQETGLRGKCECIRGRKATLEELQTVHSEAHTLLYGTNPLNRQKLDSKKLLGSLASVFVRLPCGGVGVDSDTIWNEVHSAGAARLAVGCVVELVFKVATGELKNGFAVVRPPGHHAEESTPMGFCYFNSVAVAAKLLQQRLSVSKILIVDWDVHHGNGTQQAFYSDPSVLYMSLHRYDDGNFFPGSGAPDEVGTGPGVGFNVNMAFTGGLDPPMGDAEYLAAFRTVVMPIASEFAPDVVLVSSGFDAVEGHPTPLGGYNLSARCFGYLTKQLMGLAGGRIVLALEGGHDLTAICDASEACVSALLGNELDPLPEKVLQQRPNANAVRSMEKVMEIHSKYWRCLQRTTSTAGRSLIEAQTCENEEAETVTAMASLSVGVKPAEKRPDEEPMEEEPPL
UniProt P04921: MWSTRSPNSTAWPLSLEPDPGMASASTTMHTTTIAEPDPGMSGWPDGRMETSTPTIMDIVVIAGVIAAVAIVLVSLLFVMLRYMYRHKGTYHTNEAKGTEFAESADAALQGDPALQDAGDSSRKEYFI
UniProt P14317: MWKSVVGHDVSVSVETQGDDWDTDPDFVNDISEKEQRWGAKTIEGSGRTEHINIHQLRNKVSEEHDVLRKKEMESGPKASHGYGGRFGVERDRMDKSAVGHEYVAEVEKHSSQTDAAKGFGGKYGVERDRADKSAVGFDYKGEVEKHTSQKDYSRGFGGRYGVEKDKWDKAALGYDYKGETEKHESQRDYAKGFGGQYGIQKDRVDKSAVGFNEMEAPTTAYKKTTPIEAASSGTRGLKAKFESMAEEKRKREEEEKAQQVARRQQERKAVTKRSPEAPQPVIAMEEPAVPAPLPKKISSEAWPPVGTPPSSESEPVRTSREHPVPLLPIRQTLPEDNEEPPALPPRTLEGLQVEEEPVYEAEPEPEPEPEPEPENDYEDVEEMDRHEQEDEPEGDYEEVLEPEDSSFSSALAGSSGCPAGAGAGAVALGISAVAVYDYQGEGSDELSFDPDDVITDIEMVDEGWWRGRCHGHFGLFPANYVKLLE

[1] = compound: CC(=O)c1cnc2ccc(-c3cc(Cl)c(O)c(Cl)c3)nc2c1N[C@H]1CC[C@H](CN(C)C)CC1
How it was run: as §1

ralimetinib = compound: CC(C)(C)Cn1c(N)nc2ccc(-c3[nH]c(C(C)(C)C)nc3-c3ccc(F)cc3)nc21 [ralimetinib]
How it was run: as §1

[2] = compound: CC(C)(O)CC(=O)NCCn1ccc2ncnc(Nc3ccc(Oc4cccc(C(F)(F)F)c4)c(Cl)c3)c21
How it was run: as §1

[3] = compound: CC(C)C1=C2N=C(C=C(N2N=C1)NCC3=CC=CC=C3)NCCCCCCN
How it was run: as §1

[4] = compound: CC1=C(C(CC(=O)N1)C2=CC=C(C=C2)C(F)(F)F)C(=O)NC3=C(C=C4C(=C3)C=NN4)F
How it was run: as §1

[5] = compound: CC1=C(C2=C(C=C1)C(=O)C3=CC=CC=C3N2CCCN)C
How it was run: as §1

[6] = compound: CC1=C(C=C(C=C1)NC(=O)C2=CC(=CC=C2)C(C)(C)C#N)NC3=CC4=C(C=C3)N=CN(C4=O)C
How it was run: as §1

[7] = compound: CC1=C(C=C(C=C1)NC(=O)C2=CC(=CC=C2)N(C)C)NC(=O)C3=CC=C(C=C3)O
How it was run: as §1

[8] = compound: CC1=CC=C(C=C1)SC2=C3C=C(SC3=CN=C2)C(=O)N
How it was run: as §1

vemurafenib = compound: CCCS(=O)(=O)Nc1ccc(F)c(C(=O)c2c[nH]c3ncc(-c4ccc(Cl)cc4)cc23)c1F [vemurafenib]
How it was run: as §1

[9] = compound: CCCS(=O)(=O)Nc1ccc(F)c(C(=O)c2c[nH]c3ncc(Cl)cc23)c1F
How it was run: as §1

barasertib = compound: CCN(CCCOc1ccc2c(Nc3cc(CC(=O)Nc4cccc(F)c4)[nH]n3)ncnc2c1)CCOP(=O)(O)O [barasertib]
How it was run: as §1

[10] = compound: CC[C@@H]1C(=O)N(C)c2cnc(Nc3ccc(C(=O)NC4CCN(C)CC4)cc3OC)nc2N1C1CCCC1
How it was run: as §1

volasertib = compound: CC[C@@H]1C(=O)N(C)c2cnc(Nc3ccc(C(=O)N[C@H]4CC[C@H](N5CCN(CC6CC6)CC5)CC4)cc3OC)nc2N1C(C)C [volasertib]
How it was run: as §1

[11] = compound: CCn1c(C(=O)N(C2CC2)C2CC2)cc2c3c(ncn3C)c(Nc3cc(C)n(C)n3)nc21
How it was run: as §1

[12] = compound: CCn1cc(-c2ccnc3[nH]c(-c4cccc(CN(C)C)c4)cc23)c(-c2ccc(NC(=O)N(C)C)cc2)n1
How it was run: as §1

[13] = compound: CN1CCC(CNc2ccc3ncc(-c4cccc(OC(F)(F)F)c4)n3n2)CC1
How it was run: as §1

saracatinib = compound: CN1CCN(CCOc2cc(OC3CCOCC3)c3c(Nc4c(Cl)ccc5c4OCO5)ncnc3c2)CC1 [saracatinib]
How it was run: as §1

sotrastaurin = compound: CN1CCN(c2nc(C3=C(c4c[nH]c5ccccc45)C(=O)NC3=O)c3ccccc3n2)CC1 [sotrastaurin]
How it was run: as §1

Measured: log2 fold change

UniProt H0YHG0
inactive: ibrutinib -0.01 | [1] -0.011 | ralimetinib 0.014 | [2] 0.001 | [3] -0.025 | [4] -0.007 | [5] 0.013 | [6] 0.046 | [7] -0.003 | [8] -0.015 | vemurafenib 0.003 | [9] -0.004 | barasertib -0.066 | [10] 0.08 | volasertib 0.05 | [11] -0.039 | [12] -0.085 | [13] 0.082 | saracatinib -0.007 | sotrastaurin 0.037

HBZ (UniProt P02008)
inactive: ibrutinib -0.096 | [1] -0.034 | ralimetinib 0.03 | [2] -0.024 | [3] 0 | [4] -0.076 | [5] -0.005 | [6] 0.069 | [7] -0.027 | [8] 0.041 | vemurafenib 0 | [9] 0 | barasertib 0.025 | [10] -0.007 | volasertib 0.064 | [11] 0.014 | [12] -0.019 | [13] -0.076 | saracatinib -0.007 | sotrastaurin -0.036

H1-3 (UniProt P16402)
inactive: ibrutinib -0.029 | [1] -0.021 | ralimetinib -0.046 | [2] 0.013 | [3] 0.033 | [4] 0.001 | [5] 0.17 | [6] -0.011 | [7] -0.036 | [8] 0.015 | vemurafenib -0.003 | [9] -0.018 | barasertib -0.053 | [10] 0.017 | volasertib 0.013 | [11] -0.073 | [12] -0.053 | [13] 0.033 | saracatinib -0.016 | sotrastaurin 0.013

HAUS3 (UniProt Q68CZ6)
inactive: ibrutinib -0.025 | [1] -0.021 | ralimetinib 0.009 | [2] -0.019 | [3] 0.001 | [4] 0.022 | [5] 0.026 | [6] 0.014 | [7] 0.025 | [8] 0.025 | vemurafenib 0.012 | [9] 0.024 | barasertib 0.006 | [10] -0.029 | volasertib -0.048 | [11] 0.002 | [12] -0.035 | [13] -0.065 | saracatinib -0.016 | sotrastaurin 0.01

HDLBP, A0A024R4E5
inactive: ibrutinib -0.034 | [1] -0.007 | ralimetinib 0.029 | [2] -0.014 | [3] -0.012 | [4] 0.007 | [5] -0.004 | [6] -0.009 | [7] 0.042 | [8] 0.003 | vemurafenib 0.008 | [9] 0.024 | barasertib -0.017 | [10] 0.016 | volasertib -0.04 | [11] 0.011 | [12] -0.018 | [13] -0.008 | saracatinib -0.002 | sotrastaurin 0.004

H1FX (UniProt Q92522)
inactive: ibrutinib 0.015 | [1] -0.01 | ralimetinib -0.025 | [2] -0.011 | [3] 0.007 | [4] -0.014 | [5] 0.001 | [6] 0.011 | [7] -0.021 | [8] 0.014 | vemurafenib -0.007 | [9] 0.01 | barasertib -0.004 | [10] -0.046 | volasertib -0.017 | [11] -0.026 | [12] -0.008 | [13] -0.016 | saracatinib 0.001 | sotrastaurin 0.032

GTF3C2 (UniProt Q8WUA4)
inactive: ibrutinib 0.018 | [1] -0.047 | ralimetinib 0.015 | [2] -0.031 | [3] -0.024 | [4] -0.005 | [5] -0.033 | [6] 0.019 | [7] 0.041 | [8] -0.039 | vemurafenib -0.005 | [9] 0.056 | barasertib 0.134 | [10] 0.017 | volasertib -0.223 | [11] -0.005 | [12] -0.115 | [13] 0.066 | saracatinib -0.051 | sotrastaurin 0.011

GYG1 isoform 2 (UniProt P46976)
inactive: ibrutinib -0.011 | [1] 0.007 | ralimetinib -0.039 | [2] -0.1 | [3] -0.091 | [4] -0.022 | [5] -0.054 | [6] -0.067 | [7] -0.041 | [8] 0.004 | vemurafenib -0.112 | [9] 0.013 | barasertib -0.035 | [10] -0.034 | volasertib -0.01 | [11] -0.003 | [12] 0.113 | [13] 0.027 | saracatinib 0.098 | sotrastaurin 0.045

GSE1 (UniProt Q14687)
inactive: ibrutinib 0.006 | [1] -0.021 | ralimetinib 0.015 | [2] -0.026 | [3] -0.004 | [4] -0.009 | [5] 0.008 | [6] -0.055 | [7] 0.035 | [8] -0.016 | vemurafenib -0.018 | [9] 0.035 | barasertib 0.011 | [10] -0.015 | volasertib -0.026 | [11] 0.007 | [12] -0.074 | [13] -0.009 | saracatinib 0.031 | sotrastaurin 0.049

Random excerpt: 2 records from the list, in no set order.
GTF3C2 (UniProt Q8WUA4)
inactive: ibrutinib 0.018 | [1] -0.047 | ralimetinib 0.015 | [2] -0.031 | [3] -0.024 | [4] -0.005 | [5] -0.033 | [6] 0.019 | [7] 0.041 | [8] -0.039 | vemurafenib -0.005 | [9] 0.056 | barasertib 0.134 | [10] 0.017 | volasertib -0.223 | [11] -0.005 | [12] -0.115 | [13] 0.066 | saracatinib -0.051 | sotrastaurin 0.011

H1FX (UniProt Q92522)
inactive: ibrutinib 0.015 | [1] -0.01 | ralimetinib -0.025 | [2] -0.011 | [3] 0.007 | [4] -0.014 | [5] 0.001 | [6] 0.011 | [7] -0.021 | [8] 0.014 | vemurafenib -0.007 | [9] 0.01 | barasertib -0.004 | [10] -0.046 | volasertib -0.017 | [11] -0.026 | [12] -0.008 | [13] -0.016 | saracatinib 0.001 | sotrastaurin 0.032

More records follow:

GSTT1 (UniProt P30711)
inactive: ibrutinib 0.077 | [1] -0.017 | ralimetinib -0.047 | [2] -0.036 | [3] -0.026 | [4] -0.007 | [5] 0.01 | [6] -0.014 | [7] 0.03 | [8] -0.01 | vemurafenib 0.075 | [9] 0.002 | barasertib 0.116 | [10] -0.028 | volasertib 0.038 | [11] 0.045 | [12] -0.061 | [13] -0.036 | saracatinib -0.045 | sotrastaurin -0.004

GSS (UniProt P48637)
inactive: ibrutinib 0.016 | [1] -0.021 | ralimetinib 0.009 | [2] -0.039 | [3] 0.008 | [4] 0.017 | [5] -0.002 | [6] -0.023 | [7] -0.028 | [8] -0.029 | vemurafenib -0.022 | [9] 0.012 | barasertib -0.027 | [10] 0.008 | volasertib 0.016 | [11] 0.033 | [12] -0.051 | [13] 0.037 | saracatinib 0.01 | sotrastaurin 0.012

GSPT1 isoform 3 (UniProt P15170)
inactive: ibrutinib 0.01 | [1] -0.01 | ralimetinib -0.026 | [2] 0.012 | [3] 0.015 | [4] -0.026 | [5] -0.008 | [6] -0.019 | [7] -0.02 | [8] 0 | vemurafenib -0.021 | [9] 0 | barasertib -0.014 | [10] 0.032 | volasertib 0.003 | [11] 0.008 | [12] -0.019 | [13] 0.032 | saracatinib 0.007 | sotrastaurin -0.033

HDAC4 (UniProt P56524)
inactive: ibrutinib 0.005 | [1] 0.02 | ralimetinib 0.036 | [2] -0.013 | [3] 0.033 | [4] 0.054 | [5] -0.014 | [6] -0.007 | [7] -0.056 | [8] -0.073 | vemurafenib 0.02 | [9] 0 | barasertib -0.009 | [10] -0.065 | volasertib 0.028 | [11] -0.013 | [12] -0.032 | [13] 0.025 | saracatinib 0.013 | sotrastaurin 0

HARS2 (UniProt P49590)
inactive: ibrutinib 0.049 | [1] 0.105 | ralimetinib -0.018 | [2] -0.053 | [3] -0.043 | [4] 0.022 | [5] -0.102 | [6] -0.109 | [7] 0.066 | [8] -0.054 | vemurafenib 0.009 | [9] 0.096 | barasertib 0.023 | [10] 0.068 | volasertib -0.033 | [11] 0.026 | [12] 0.047 | [13] 0.056 | saracatinib -0.049 | sotrastaurin 0.092

GYPC (UniProt P04921)
inactive: ibrutinib 0.276 | [1] -0.052 | ralimetinib 0.078 | [2] -0.11 | [3] -0.111 | [4] 0.071 | [5] -0.001 | [6] 0.033 | [7] -0.071 | [8] 0.004 | vemurafenib 0.066 | [9] -0.017 | barasertib 0.377 | [10] 0.017 | volasertib 0 | [11] 0.065 | [12] -0.083 | [13] -0.001 | saracatinib -0.006 | sotrastaurin 0.084

HCLS1 (UniProt P14317)
inactive: ibrutinib 0.078 | [1] -0.028 | ralimetinib -0.021 | [2] 0.004 | [3] -0.002 | [4] -0.02 | [5] 0.021 | [6] -0.026 | [7] 0.018 | [8] -0.019 | vemurafenib 0.045 | [9] -0.007 | barasertib -0.043 | [10] 0.049 | volasertib 0.021 | [11] 0 | [12] 0.032 | [13] -0.011 | saracatinib 0.016 | sotrastaurin 0.012

Reference: the supplement of paper PMC10849652
